Data as given in publication PMC10163288.
The other results are listed elsewhere or left out.

B1: il2ra_site2_3nfp_normal_mot_7675ed0aaee259bd5fe474e1c5677d04_0001_1_af2_000000130_0001_50_65_H_._94dd93bd6c412fbbff13e3b64d3c2b88_0001_af2_0001_0000100004_00000 … (protein)
chain: DHTEEYLLAALKLALHDPRTRELVREALELLLGDPEEAEELLKELLELLREGDTERVEELLREVL
B2: il2ra_site1_2b5i_normal_mot_HHH_b1_02271_000000068_0001_1_16_H_._HHH_b2_05591_0001_0000200002_0000001_0_af2pred_dldesign_0_af2pred (protein)
chain: SSSSSPLDARVAATLAEARALAAAGRRREALELLNELAKEIDELDREELRARVEALFRELSSSSS
B3: il2ra_site1_3nfp_normal_mot_HHH_b2_02028_000000074_0001_1_17_H_._8e257ee7c168324b0daa1e7d19ed2966_0001_0001_0000200010_0000001_0_af2pred_0001_af2pred_1_swapped (protein)
chain: SLEEALEFLEELAEKLNDSALKLLVEALEKLVRNGNAELARAAVERFLETTGDPKLEEVLELLRK
B4: il2ra_site2_2erj_normal_mot_HHH_b2_06912_000000039_0001_38_52_H_._HHH_b2_03682_af2_0001_0000400025_0000001_0 (protein)
chain: SSSSSDYWEEVAELLAEALRAFKEGDPELVEELLEEAQRVAEENNDEYLKRYIELARKDASSSSS
B5: il2ra_site2_3nfp_sap_19_mot_HHH_b2_06150_000000217_0001_39_53_H_._HHH_b2_03993_af2_0001_0000100001_0000001_0_0001 (protein)
chain: SSSSDKAQKYLEAAIEIVKRALEEGDPESARKSAETAALAAESRGDEELLKEIEELLEEISSSSS
B6: il2ra_site1_2b5i_sap_17_mot_HHH_b1_08678_af2_000000008_0001_41_54_H_._HHH_b2_02895_0001_0000500022_0000001_0_0001 (protein)
chain: SSSSNELKELVRFVLRLKHEFNLSQELVRELLRLLNELHQRGVSPEEIKEILEKVAEELGSSSSS
B7: il2ra_site1_2b5i_normal_mot_HHH_b2_04910_000000118_0001_1_19_H_._HHH_b1_07300_af2_0001_0000300009_0000001_0 (protein)
chain: SSSSNESERVRELFELADRLDKNGNPEEAEEVLKEAEELAEEANNRHLQRQVEAAKRAFESSSSS
B8: il2ra_site1_3nfp_sap_15_mot_HHH_b1_02637_af2_000000013_0001_1_18_H_._HHH_b1_08141_af2_0001_0000100001_0000001_0_0001_af2pred_0001_af2pred_swapped (protein)
chain: TLRWLLRRAEKRGTEEEFVKRLLEEVAKSLGNPEDAKKFLKRDLRRAGIPPEEVEELVERAEELR
B9: il2ra_site2_3nfp_sap_13_mot_HHH_b2_07840_000000026_0001_18_34_H_._HHH_b2_06303_0001_0000600058_0000001_0_0001 (protein)
chain: SSSSSKAEEYLRIAIEIVRRAIEDGDPESARRSAEIAAAAAESNNDEEALKILEELLEELSSSSS
B10: il2ra_site1_3nfp_sap_16_mot_HHH_b1_07180_af2_000000260_0001_1_19_H_._HHH_b2_05359_af2_0001_0000400031_0000001_0_0001_af2pred_0001_af2pred (protein)
chain: SEELQELDRAAKKLDPELLELWWALAELLARKGDPRYLEVIKEVVELAKKNEEEAKELAKEVLEK
B11: il2ra_site1_2b5i_sap_17_mot_HHH_b2_01822_000000237_0001_40_54_H_._HHH_b2_07957_0001_0000100004_0000001_0_0001 (protein)
chain: SSSSELHRFAAELVDRLIEELGLDFEQARELTREAVRLIWRGVSEEEIEKLVEELARELRGSSSS
B12: il2ra_site1_3nfp_sap_16_mot_5dea99290cf7e133ebc5b763b21a7a39_0001_000000141_0001_34_49_H_._ems_3hC_617_0002_0001_0000300017_0000001_0_0001 (protein)
chain: NDKIAERLVRQAVEQNSPRILKKILEDLERVLGDPEEARERLRELLELVLGDPEEVERLLELAEE
B13: il2ra_site2_3nfp_normal_mot_HHH_b2_06150_000000217_0001_39_53_H_._de103a6a2759fb2eb67fe2c7ae4a7c2b_0001_0001_0000200008_0000001_0_af2pred_0001_1_af2pred_swapped (protein)
chain: SRRLEALRILRELGDPEAASSLFILAADVFVEGDPELRELLEQVLELVEEGDPEEARRLLEEIAN
B14: il2ra_site2_2erj_sap_20_mot_HHH_b2_06331_000000250_0001_1_15_H_._95ea16d1e5c3ef04f4ccc51fe24bf1b3_0001_0001_0000300018_0000001_0_0001 (protein)
chain: SSSSLRERYEELNELSKRLSEAAENNDKETIEELLEELRELVEETGDPALRLLLRLIKAQLSSSS
B15: il2ra_site1_2b5i_normal_mot_HHH_b1_02271_000000068_0001_1_16_H_._HHH_b2_05754_af2_0001_0000200009_0000001_0_af2pred_dldesign_0_af2pred (protein)
chain: SSSSSKEELTEEVKRLIEQAKKEKNRFEALKKLEEAYKLASKIDDEELLEEIEKLFKELSSSSSS
B16: il2ra_site1_2b5i_normal_mot_f5ff40796168375b462bec8614a1db4a_0001_1_000000138_0001_53_65_H_._HHH_b1_07775_af2_0001_0000200011_0000001_0_af2pred_dldesign_0_af2pr … (protein)
chain: SSSSSEELRELVKELIEEAKKLKDKKLAKKILLLAKRVAKKAGDEELVKEVEAELEKVLKSSSSS
B17: il2ra_site1_3nfp_sap_10_mot_58e3eb3031e6d57439b1b965989c2868_0001_af2_000000159_0001_19_34_H_._23df80f98f222f1add62a155639b9461_0001_0001_0000200014_0000001_0_0 … (protein)
chain: DAEEAIAEFIAEAVKNNNPKLLRKVLENAERFLGNPEEAKRLFEELLEKAGLSPEEIEEAKELVE
B18: il2ra_site1_1z92_sap_9_mot_74bb627b62bb877a56547cee6c7a6e54_0001_000000029_0001_1_13_H_._HHH_b2_03173_0001_0000200016_0000001_0_0001 (protein)
chain: SSSSDEAHEKFAKRVVEDFVKTIGLSEEQKEQLEELAKRLLEEGFSNREIFEELAKLAERLSSSS
B19: il2ra_site1_3nfp_sap_21_mot_HHH_b2_07963_000000178_0001_1_20_H_._HHH_eva_0385_af2_0001_0000100002_0000001_1_0001_af2pred_0001_af2pred (protein)
chain: SSSSTEELKELLEEAAELARNGNPEEALEVLREALRLAEERNDKNAEKFLRVAIKIVESLRSSSS

Each binder was assayed against il2ra, P01589 (assay: yeast display titration).

Apparent Kd, inactive:
B1 no binding seen
B2 no binding seen
B3 no binding seen
B4 no binding seen
B5 no binding seen
B6 no binding seen
B7 no binding seen
B8 no binding seen
B9 no binding seen
B10 no binding seen
B11 > 2.63 nM
B12 no binding seen
B13 no binding seen
B14 no binding seen
B15 no binding seen
B16 no binding seen
B17 no binding seen
B18 no binding seen
B19 no binding seen

Four successive entries from above, for reference:
Apparent Kd, inactive:
B13 no binding seen
B14 no binding seen
B15 no binding seen
B16 no binding seen
